Measured values as given in patent US20240415972A1, “MICROFRAGMENTED FAT TISSUE AS DRUG DELIVERY SYSTEM IN LIVER CANCER THERAPY” (LIPOGEMS INTERNATIONAL S.P.A., priority 2021, published 2024).
Some results were stated once for a whole list of compounds, not compound by compound.

Tested on: Hep-3B tumor
Test: In vivo anti-tumor activity, single-shot local injection next to sc Hep-3B tumor
Settings: free PTX 10 mg/kg or DMFAT 200 μl (stated together with control)

## CC(=O)O[C@H]1C(=O)[C@@]2(C)[C@H]([C@H](OC(=O)c3ccccc3)[C@]3(O)C[C@H](OC(=O)[C@H](O)[C@@H](NC(=O)c4ccccc4)c4ccccc4)C(C)=C1C3(C)C)[C@]1(OC(C)=O)CO[C@@H]1C[C@@H]2O [PTX, Paclitaxel]
  Time to reach tumor weight of around 1 g: 24 to 31 days
  Time to reach tumor weight up to 2 g: 29 to 36 days
